The results in this text go back to PubChem BioAssay AID1487 (National Center for Advancing Translational Sciences (NCATS), 2009).

This is one part of the list. These are further read-outs of the screen, such as a control signal, another cell line or another target. No call is given for them. Compounds called inactive in the main read-out are mostly missing here. Words in brackets tell the shape of the fitted curve; partial curves, single points and poor fits give uncertain potencies.

Broadly, the AC50 is the concentration at which the activity in the assay is half-maximal.

The experiment can be described thus: qHTS Assay for Modulators of Lamin A Splicing. The note with it: HeLa LMNA splicing GFP/RFP minigene ratio, 48 h. The procedure, abridged:
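Read-out is the ratio of GFP to DsRed2 object intensity, acquired by 488 nm laser-scanning cytometry on HeLa lamin A-EGFP minigene reporter cells. Compound incubation 48 hrs at 37 °C in Opti-MEM with 2% FBS; DMSO 0.5% final.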
(In general: qHTS replaces the single test concentration by a dilution series.)

Setting [1] is: measured here: RFP viability control channel.
[2] abbreviates: measured here: GFP splicing reporter channel.

For `CCCCNS(=O)(=O)c1ccc(NC(=O)c2cccs2)cc1`, the half-maximal activity concentration (AC50) under setting [1] was 35.5 µM [rising, single point].
For the molecule `COc1ccc(F)cc1S(=O)(=O)NCCc1csc2nc(-c3cccc(C)c3)nn12`, the AC50 by setting is: under setting [2], 31.6 µM [falling, single point]; under setting [1], 35.5 µM [falling, single point].
For the molecule `COc1ccccc1OCC(=O)NCC(c1ccc(Cl)cc1)N1CCCCC1` (stereo not drawn), the concentration at half-maximal activity (AC50) under setting [2] was 1.78 µM [falling, full curve, poor fit].
As to `Cc1ccc(C(=O)OCCc2sc[n+](Cc3ccccc3)c2C)cc1`, the AC50 under setting [1] was 17.8 µM [rising, single point].
The same measure, in the same setting: the figure for `Cc1ccc(C(C#N)c2ccc(C(=O)c3ccc(F)cc3)cc2)cc1` (stereo not drawn) is 14.1 µM [rising, single point]; for `CCC(Oc1ccccc1)C(=O)O/N=C(\N)c1ccc(OC)c(OC)c1` (stereo not drawn) it is 10 µM [rising, partial curve, poor fit].
Still for that read-out and setting: the figure for `COc1ccccc1-n1cnc(N)c1C(=O)c1ccccc1` is 31.6 µM [rising, single point].
With `Cc1cccc(/C=C(\c2nc3ccccc3[nH]2)S(=O)(=O)c2ccccc2)c1`, the half-maximal activity concentration (AC50) under setting [2] was 3.98 µM [falling, full curve, poor fit].
`CCOc1cc(C(=O)NCCc2csc3nc(-c4ccc(C)cc4)nn23)cc(OCC)c1OCC`: under setting [1], the concentration at half-maximal activity (AC50) is 3.16 µM [rising, partial curve, poor fit].
Consider `N#CCC(=O)Nc1nc(-c2ccc3c(c2)OCCO3)cs1`, for which the concentration at half-maximal activity (AC50) under setting [2] was 0.0562 µM [falling, full curve, poor fit].
Regarding `COc1ccc(C(=O)N/N=C/c2sc3ccccc3c2O)cc1`, the AC50 reads like this: under setting [2], 14.1 µM [rising, partial curve, poor fit]; under setting [1], 14.1 µM [rising, partial curve].
As for `CCOc1ccc2[nH]c(=O)c(CN(Cc3ccco3)C(CC)c3nnnn3Cc3ccccc3)cc2c1` (stereo not drawn), under setting [1], the concentration at half-maximal activity (AC50) was 11.2 µM [falling, partial curve, poor fit].
On to `Cc1nsc2c1ccc1ccccc12`, for which, under setting [2], the AC50 is 0.0126 µM [rising, full curve, poor fit].
With `COc1ccccc1NC(=S)NC1CCCCCC1`, under setting [1], the concentration at half-maximal activity (AC50) is 14.1 µM [rising, partial curve].
As for `CCOc1ccccc1NC(=S)N(CCC(C)C)C1CCN(C(C)=O)CC1`, the AC50 under setting [2] was 5.62 µM [falling, single point] and the AC50 under setting [1] was 6.31 µM [falling, single point].
Take `N#Cc1c(N)c(C#N)c(-c2ccc3c(c2)OCO3)c2c1CCCC2`: the AC50 under setting [2] is 12.6 µM [rising, partial curve, poor fit] and the AC50 under setting [1] was 35.5 µM [rising, single point].
As for `CS/C(=N\S(=O)(=O)c1cccs1)Nc1ccc(Br)cc1F`, the half-maximal activity concentration (AC50) under setting [1] is 35.5 µM [rising, single point].
`COc1ccc(S(=O)(=O)N2CCCCC2)cc1`: the AC50 under setting [2] was 6.31 µM [falling, single point].
Take `Cc1cc(N/N=C/c2ccccc2)nc(NCc2ccccc2)n1`: the half-maximal activity concentration (AC50) runs as follows: under setting [2], 15.8 µM [rising, single point]; under setting [1], 22.4 µM [rising, single point].
For `O=C(c1ccc(F)cc1)N1c2nc(-c3ccco3)nn2C2(CCCCC2)[C@@H]2CCCC[C@@H]21`, the half-maximal activity concentration (AC50) under setting [2] is 0.01 µM [rising, full curve, poor fit].
Still for that read-out and setting: as for `O=C(Cc1cccc2ccccc12)N/N=C/c1ccc(O)c([N+](=O)[O-])c1`, the figure is 35.5 µM [falling, single point].
As to `N#CCC(=O)Nc1ccc(C(=O)OCC(=O)Nc2ccccc2-c2ccccc2)cc1`, the AC50 under setting [1] was 6.31 µM [falling, partial curve].
Same read-out and setting: the figure for `Cc1ccc(SCCNC(=O)c2ccc(CN3CCOCC3)cc2)cc1` is 5.01 µM [rising, partial curve, poor fit].
Consider `CCC(=O)Nc1nnc(SCc2cc(=O)c3cc(C)ccc3[nH]2)s1`, for which the half-maximal activity concentration (AC50) under setting [2] is 0.224 µM [rising, partial curve].
Take `CC1(C)SC2C(NC(=O)C(C(=O)O)c3ccccc3)C(=O)N2C1C(=O)O` (stereo not drawn): the AC50 under setting [1] was 0.158 µM [rising, full curve, poor fit].
Take `COc1ccc(CCCc2nnc(SCC(=O)Nc3ncc(C)s3)o2)cc1`: the concentration at half-maximal activity (AC50) reads like this: under setting [2], 12.6 µM [rising, partial curve, poor fit]; under setting [1], 17.8 µM [rising, single point].
`Cc1ccc(S(=O)(=O)N2CCC(=O)N(C(COCc3cccc(C)c3)C(C)C)CC2)cc1` (stereo not drawn): the AC50 under setting [1] was 7.08 µM [rising, partial curve, poor fit].
Turning to `COC(=O)C(=C/C(C)=C/c1cccs1)C(=O)OC`, under setting [1], the AC50 is 14.1 µM [falling, single point].
Consider `CCOC(=O)c1c[nH]c(=S)n1C`, for which the AC50 under setting [2] is 1.26 µM [rising, partial curve].
For `COc1ccc(CCNC(=O)C(=O)NCc2ccccc2C)cc1OC`, the AC50 under setting [1] is 0.398 µM [falling, full curve, poor fit].
Still for that read-out and setting: the figure for `CC(=O)Nc1cc(C(=O)NCc2ccco2)ccc1Sc1ccc(F)cc1` is 7.08 µM [rising, partial curve].
`Cc1cc(C)cc(NS(=O)(=O)c2ccc(Oc3ncc(C(F)(F)F)cc3Cl)cc2)c1`: the concentration at half-maximal activity (AC50) was 28.2 µM [falling, single point] under setting [2] and 31.6 µM [falling, single point] under setting [1].
For the molecule `O=C(NNC(=S)Nc1cccc(C(F)(F)F)c1)c1cccc(Cl)c1`, the concentration at half-maximal activity (AC50) was 7.94 µM [rising, partial curve] under setting [2] and 11.2 µM [rising, partial curve] under setting [1].
Regarding `C[C@@H](C[N+](C)(C)C)OC(N)=O`, the AC50 under setting [2] is 0.1 µM [falling, full curve] and the concentration at half-maximal activity (AC50) under setting [1] is 0.0891 µM [falling, full curve].
Regarding `Oc1ccc(/C=N/NC(=S)Nc2cccnc2)c(O)c1`, the AC50 under setting [2] was 22.4 µM [rising, single point] and the half-maximal activity concentration (AC50) under setting [1] was 25.1 µM [rising, single point].
In the case of `CCCCC(CC)CNC(=O)/C=C/c1ccc(F)cc1` (stereo not drawn), under setting [1], the concentration at half-maximal activity (AC50) was 10 µM [rising, partial curve, poor fit].
Same read-out and setting: the figure for `COc1ccc(/C=N/n2c(N)nc(-c3ccccc3)c2-c2ccccc2)cc1` is 35.5 µM [rising, single point].
Still for that read-out and setting: as for `CC(C)c1ccc(/C=C/c2ccc(=O)n(C)n2)cc1`, the figure is 8.91 µM [rising, partial curve, poor fit].
